Measured values taken from the supplement of paper PMC7666118.
The list shows a part of the results.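 How the source made its calls: active = dose-dependent thermal stabilisation significant by F-test of dose-response against flat model at 10% FDR; inactive = not significant.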

Amino acid sequences for entries named in this document (tags omitted). A change or cut given only in a name is not applied to a line headed by its entry.
UniProt Q92834: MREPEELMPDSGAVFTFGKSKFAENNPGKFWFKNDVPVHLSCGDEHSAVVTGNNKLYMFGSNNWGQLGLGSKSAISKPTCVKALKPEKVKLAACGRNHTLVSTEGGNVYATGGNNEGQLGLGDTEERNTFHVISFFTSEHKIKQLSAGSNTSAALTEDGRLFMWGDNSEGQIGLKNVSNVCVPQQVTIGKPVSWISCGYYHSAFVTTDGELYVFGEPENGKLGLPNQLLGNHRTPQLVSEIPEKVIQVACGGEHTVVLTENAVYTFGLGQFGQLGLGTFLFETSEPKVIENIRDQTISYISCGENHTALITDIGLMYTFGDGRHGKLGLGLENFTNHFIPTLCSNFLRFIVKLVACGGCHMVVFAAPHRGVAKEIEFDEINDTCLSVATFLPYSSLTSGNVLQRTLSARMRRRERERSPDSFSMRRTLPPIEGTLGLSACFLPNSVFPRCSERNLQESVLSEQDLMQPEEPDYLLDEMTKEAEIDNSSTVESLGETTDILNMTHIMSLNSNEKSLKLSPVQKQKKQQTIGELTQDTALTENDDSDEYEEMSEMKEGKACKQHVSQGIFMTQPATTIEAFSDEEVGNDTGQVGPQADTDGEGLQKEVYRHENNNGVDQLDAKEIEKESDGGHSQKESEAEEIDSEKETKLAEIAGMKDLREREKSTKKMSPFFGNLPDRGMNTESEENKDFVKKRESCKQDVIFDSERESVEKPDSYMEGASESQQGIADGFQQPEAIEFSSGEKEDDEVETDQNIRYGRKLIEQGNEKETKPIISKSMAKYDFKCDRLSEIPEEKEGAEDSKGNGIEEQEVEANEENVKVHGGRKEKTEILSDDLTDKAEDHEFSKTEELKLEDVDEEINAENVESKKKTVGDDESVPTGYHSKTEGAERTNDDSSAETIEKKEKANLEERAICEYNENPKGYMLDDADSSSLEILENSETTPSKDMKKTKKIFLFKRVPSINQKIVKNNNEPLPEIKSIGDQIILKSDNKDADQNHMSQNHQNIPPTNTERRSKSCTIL
UniProt Q96A37: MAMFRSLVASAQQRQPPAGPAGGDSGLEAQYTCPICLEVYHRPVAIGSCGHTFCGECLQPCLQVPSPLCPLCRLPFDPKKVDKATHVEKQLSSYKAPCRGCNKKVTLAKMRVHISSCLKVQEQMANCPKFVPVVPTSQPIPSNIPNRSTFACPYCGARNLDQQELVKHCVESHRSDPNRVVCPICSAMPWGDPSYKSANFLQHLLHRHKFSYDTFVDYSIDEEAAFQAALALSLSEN
UniProt O43148, whole entry: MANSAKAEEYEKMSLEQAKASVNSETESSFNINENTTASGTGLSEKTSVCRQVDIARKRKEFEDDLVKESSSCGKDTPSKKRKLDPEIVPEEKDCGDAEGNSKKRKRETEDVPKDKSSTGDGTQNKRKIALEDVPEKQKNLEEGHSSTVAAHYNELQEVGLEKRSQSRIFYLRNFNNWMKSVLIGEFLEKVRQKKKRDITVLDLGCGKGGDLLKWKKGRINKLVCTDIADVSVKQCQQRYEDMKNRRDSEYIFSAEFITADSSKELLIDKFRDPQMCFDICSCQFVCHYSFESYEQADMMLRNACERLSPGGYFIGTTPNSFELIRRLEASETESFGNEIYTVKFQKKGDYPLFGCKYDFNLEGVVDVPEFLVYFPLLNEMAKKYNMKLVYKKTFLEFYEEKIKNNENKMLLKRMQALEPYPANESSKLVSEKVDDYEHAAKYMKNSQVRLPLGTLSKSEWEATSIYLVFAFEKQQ
UniProt O95059: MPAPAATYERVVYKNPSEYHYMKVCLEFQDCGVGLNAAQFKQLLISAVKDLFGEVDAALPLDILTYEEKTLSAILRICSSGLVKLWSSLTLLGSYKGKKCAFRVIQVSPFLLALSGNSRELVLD
UniProt O43765: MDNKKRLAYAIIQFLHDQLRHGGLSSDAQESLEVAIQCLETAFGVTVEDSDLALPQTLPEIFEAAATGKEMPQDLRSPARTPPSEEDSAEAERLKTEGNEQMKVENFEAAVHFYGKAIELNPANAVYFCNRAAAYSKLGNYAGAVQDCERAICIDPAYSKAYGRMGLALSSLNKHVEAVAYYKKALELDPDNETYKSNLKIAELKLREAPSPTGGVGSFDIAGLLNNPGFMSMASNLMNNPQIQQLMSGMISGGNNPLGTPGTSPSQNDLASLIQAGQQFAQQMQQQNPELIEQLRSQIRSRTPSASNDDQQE
UniProt Q8ND24: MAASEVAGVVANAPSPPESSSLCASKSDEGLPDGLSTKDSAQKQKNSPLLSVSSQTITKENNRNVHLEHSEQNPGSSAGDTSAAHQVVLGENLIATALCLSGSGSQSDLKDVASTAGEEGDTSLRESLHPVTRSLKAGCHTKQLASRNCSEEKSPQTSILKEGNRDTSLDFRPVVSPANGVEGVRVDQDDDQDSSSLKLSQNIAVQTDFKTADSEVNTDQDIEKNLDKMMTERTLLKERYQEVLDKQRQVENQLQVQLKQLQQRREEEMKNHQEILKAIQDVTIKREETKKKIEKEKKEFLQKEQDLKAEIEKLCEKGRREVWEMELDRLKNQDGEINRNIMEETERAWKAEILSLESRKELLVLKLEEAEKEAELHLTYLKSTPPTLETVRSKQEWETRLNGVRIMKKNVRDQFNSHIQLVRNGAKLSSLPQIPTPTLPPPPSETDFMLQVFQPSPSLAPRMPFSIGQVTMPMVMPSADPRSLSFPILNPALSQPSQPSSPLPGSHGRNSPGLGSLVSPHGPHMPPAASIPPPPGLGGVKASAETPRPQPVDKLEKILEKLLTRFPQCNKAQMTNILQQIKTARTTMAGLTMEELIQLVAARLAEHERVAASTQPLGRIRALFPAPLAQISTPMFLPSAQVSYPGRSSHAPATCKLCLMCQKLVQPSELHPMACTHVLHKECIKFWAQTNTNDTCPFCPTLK
UniProt O00287: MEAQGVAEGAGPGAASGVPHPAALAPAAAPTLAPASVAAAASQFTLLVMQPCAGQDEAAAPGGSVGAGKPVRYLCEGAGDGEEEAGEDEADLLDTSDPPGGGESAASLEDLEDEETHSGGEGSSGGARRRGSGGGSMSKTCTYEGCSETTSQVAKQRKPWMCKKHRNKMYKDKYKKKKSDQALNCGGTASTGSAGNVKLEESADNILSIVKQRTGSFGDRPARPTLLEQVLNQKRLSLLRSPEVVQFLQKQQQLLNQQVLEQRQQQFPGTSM
UniProt Q9NQL2, whole entry: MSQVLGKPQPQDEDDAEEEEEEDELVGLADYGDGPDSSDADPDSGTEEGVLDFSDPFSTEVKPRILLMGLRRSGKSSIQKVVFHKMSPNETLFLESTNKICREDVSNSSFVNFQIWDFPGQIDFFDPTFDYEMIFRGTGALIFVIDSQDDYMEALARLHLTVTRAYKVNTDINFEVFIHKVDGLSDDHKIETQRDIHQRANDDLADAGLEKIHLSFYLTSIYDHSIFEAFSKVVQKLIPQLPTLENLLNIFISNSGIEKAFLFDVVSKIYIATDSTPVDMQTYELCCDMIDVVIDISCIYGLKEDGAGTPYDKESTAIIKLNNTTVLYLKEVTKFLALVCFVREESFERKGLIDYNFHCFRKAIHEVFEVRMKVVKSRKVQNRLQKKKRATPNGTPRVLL
UniProt P78346: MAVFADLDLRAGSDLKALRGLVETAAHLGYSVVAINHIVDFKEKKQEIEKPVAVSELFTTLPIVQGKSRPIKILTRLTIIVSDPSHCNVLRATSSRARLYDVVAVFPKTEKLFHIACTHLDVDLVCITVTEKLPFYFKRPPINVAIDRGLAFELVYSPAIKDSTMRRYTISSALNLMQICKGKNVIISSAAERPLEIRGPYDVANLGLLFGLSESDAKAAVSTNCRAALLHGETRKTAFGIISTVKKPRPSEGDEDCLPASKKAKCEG
UniProt Q5FBB7: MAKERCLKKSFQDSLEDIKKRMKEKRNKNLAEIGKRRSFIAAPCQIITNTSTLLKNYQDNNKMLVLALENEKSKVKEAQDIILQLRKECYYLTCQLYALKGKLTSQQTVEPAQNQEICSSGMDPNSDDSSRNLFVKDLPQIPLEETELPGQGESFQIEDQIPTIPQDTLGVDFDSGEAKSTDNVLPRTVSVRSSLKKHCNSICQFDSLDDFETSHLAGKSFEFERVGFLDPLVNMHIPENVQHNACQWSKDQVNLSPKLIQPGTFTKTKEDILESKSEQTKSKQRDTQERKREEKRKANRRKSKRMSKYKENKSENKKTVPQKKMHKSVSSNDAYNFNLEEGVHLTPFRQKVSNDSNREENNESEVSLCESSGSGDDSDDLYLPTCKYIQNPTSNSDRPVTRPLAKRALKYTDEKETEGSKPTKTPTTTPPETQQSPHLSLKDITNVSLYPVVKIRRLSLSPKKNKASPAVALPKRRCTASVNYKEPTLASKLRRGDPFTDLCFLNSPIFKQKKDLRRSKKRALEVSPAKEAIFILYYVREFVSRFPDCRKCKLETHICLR
UniProt Q01196, whole entry: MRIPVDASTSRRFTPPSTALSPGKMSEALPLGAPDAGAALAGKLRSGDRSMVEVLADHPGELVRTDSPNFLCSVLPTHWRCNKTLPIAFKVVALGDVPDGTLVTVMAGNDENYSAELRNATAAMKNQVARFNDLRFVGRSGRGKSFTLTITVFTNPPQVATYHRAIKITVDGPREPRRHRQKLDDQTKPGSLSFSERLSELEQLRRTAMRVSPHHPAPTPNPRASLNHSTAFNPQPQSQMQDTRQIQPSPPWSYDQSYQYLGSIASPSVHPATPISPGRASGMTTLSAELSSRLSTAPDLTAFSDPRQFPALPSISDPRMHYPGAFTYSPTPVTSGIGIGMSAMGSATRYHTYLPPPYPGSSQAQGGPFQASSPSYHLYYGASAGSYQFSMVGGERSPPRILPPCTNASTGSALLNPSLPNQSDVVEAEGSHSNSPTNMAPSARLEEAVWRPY
UniProt Q96LD8: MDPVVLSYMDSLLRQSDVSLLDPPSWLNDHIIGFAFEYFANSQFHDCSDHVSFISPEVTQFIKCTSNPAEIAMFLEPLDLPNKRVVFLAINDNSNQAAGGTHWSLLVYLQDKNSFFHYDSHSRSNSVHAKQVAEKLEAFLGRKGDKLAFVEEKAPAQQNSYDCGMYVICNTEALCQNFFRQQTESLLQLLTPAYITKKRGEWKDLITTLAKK
UniProt Q96DX4: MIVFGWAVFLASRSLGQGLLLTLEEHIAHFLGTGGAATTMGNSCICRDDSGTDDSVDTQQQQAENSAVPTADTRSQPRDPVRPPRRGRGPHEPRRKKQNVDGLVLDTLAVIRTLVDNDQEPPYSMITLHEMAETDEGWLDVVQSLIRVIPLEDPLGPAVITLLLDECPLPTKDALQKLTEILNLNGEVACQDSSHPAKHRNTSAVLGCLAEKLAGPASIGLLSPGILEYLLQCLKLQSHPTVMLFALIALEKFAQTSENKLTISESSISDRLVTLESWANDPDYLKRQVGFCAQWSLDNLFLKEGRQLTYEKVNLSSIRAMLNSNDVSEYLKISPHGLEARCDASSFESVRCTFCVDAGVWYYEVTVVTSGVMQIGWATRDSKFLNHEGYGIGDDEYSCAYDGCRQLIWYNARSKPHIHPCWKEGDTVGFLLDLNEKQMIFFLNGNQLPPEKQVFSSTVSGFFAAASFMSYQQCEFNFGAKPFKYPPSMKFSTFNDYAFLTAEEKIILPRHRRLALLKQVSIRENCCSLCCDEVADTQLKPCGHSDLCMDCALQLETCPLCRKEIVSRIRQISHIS
UniProt O75368: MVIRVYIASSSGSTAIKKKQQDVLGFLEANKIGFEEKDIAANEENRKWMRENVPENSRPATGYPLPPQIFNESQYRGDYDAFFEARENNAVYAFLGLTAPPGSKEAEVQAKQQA
UniProt Q96T21: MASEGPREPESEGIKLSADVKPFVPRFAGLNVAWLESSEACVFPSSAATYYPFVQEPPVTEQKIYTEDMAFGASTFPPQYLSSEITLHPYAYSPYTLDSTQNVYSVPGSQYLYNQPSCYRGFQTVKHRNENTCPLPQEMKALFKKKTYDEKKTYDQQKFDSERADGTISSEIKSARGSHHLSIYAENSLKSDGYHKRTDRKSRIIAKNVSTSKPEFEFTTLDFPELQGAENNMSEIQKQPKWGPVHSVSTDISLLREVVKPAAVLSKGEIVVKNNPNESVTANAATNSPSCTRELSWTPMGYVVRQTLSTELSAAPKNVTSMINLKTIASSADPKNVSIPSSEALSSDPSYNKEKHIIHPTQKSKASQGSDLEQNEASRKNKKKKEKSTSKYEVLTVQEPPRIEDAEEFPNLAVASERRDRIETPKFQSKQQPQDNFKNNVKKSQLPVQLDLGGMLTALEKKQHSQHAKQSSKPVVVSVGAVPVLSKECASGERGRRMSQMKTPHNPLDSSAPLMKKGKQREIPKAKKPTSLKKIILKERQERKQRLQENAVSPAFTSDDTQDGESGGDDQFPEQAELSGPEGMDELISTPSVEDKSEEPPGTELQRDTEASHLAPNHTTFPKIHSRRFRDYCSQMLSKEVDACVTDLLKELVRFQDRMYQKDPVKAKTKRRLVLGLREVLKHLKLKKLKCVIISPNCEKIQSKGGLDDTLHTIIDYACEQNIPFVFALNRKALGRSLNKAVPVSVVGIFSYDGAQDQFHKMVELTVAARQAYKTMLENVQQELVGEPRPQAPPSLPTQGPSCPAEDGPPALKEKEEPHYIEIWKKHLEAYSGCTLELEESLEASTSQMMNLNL

Compound: Nc1nc2c(ncn2[C@@H]2O[C@H](COP(=O)(O)OP(=O)(O)OP(=O)(O)O)[C@@H](O)[C@H]2O)c(=O)[nH]1
Assay: dose-dependent thermal stabilisation call (2D-TPP, DLPTP, 10% FDR) (binary (1 = stabilised)); higher = stabilised by the compound
Settings: system: Jurkat gel-filtered lysate; concentration range 1-500 µM
Description: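 2D thermal proteome profiling in gel-filtered Jurkat E6.1 lysate (2 mg/ml) treated with NaGTP (0, 1, 10, 100, 500 uM) for 10 min at room temperature, then heated 3 min at one of 12 temperatures (42-63.9 C). Soluble protein was quantified by TMT10 MS. The value is the DLPTP call of the paper: dose-dependent thermal stabilisation over all temperatures at 10% FDR (F-test of a dose-response against a flat model); one experiment, one call per tested protein.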

| Target | dose-dependent thermal stabilisation call |
| --- | --- |
| RPGR (UniProt Q92834) | inactive: 0 |
| RNF166 (UniProt Q96A37) | inactive: 0 |
| RPS8 (UniProt P62241) | inactive: 0 |
| RNMT (UniProt O43148) | inactive: 0 |
| RPP14 (UniProt O95059) | inactive: 0 |
| SDCBP (UniProt O00560) | inactive: 0 |
| SGTA (UniProt O43765) | inactive: 0 |
| SENP6 (UniProt Q9GZR1) | inactive: 0 |
| SEPSECS (UniProt Q9HD40) | inactive: 0 |
| RNF214 (UniProt Q8ND24) | inactive: 0 |
| RFXAP (UniProt O00287) | inactive: 0 |
| RWDD1 (UniProt Q9H446) | inactive: 0 |
| SETD1A (UniProt O15047) | inactive: 0 |
| RNGTT (UniProt O60942) | active: 1 |
| SETDB1 (UniProt Q15047) | inactive: 0 |
| RPL26L1 (UniProt Q9UNX3) | inactive: 0 |
| RPL27A (UniProt P46776) | inactive: 0 |
| SCAF4 (UniProt O95104) | inactive: 0 |
| RRAGD (UniProt Q9NQL2) | inactive: 0 |
| SEC14L2 (UniProt O76054) | inactive: 0 |

Laid out differently: results already given.
Target,dose-dependent thermal stabilisation call
RPL26L1 (UniProt Q9UNX3),inactive: 0
RPL27A (UniProt P46776),inactive: 0

Going on with the list.

| Target | dose-dependent thermal stabilisation call |
| --- | --- |
| RNF111 (UniProt Q6ZNA4) | inactive: 0 |
| RECQL5 (UniProt O94762) | inactive: 0 |
| SARNP (UniProt P82979) | inactive: 0 |
| SELL (UniProt P14151) | inactive: 0 |
| RPP30 (UniProt P78346) | inactive: 0 |
| RRP15 (UniProt Q9Y3B9) | inactive: 0 |
| SGO1 (UniProt Q5FBB7) | inactive: 0 |
| RUNX1 (UniProt Q01196) | inactive: 0 |
| SENP8 (UniProt Q96LD8) | inactive: 0 |
| RPL29 (UniProt P47914) | inactive: 0 |
| RPRD2 (UniProt Q5VT52) | inactive: 0 |
| RSPRY1 (UniProt Q96DX4) | inactive: 0 |
| SH3BGRL (UniProt O75368) | inactive: 0 |
| RPS27 (UniProt P42677) | inactive: 0 |
| RNF219 (UniProt Q5W0B1) | inactive: 0 |
| SECISBP2 (UniProt Q96T21) | inactive: 0 |
| RIC8B (UniProt Q9NVN3) | inactive: 0 |
| SCAF1 (UniProt Q9H7N4) | inactive: 0 |
| SEPTIN11 (UniProt Q9NVA2) | inactive: 0 |
| RPL19 (UniProt P84098) | inactive: 0 |
